Among the data in paper PMC4169579, “Proteolytic Activity of Prostate-Specific Antigen (PSA) towards Protein Substrates and Effect of Peptides Stimulating PSA Activity” (PLoS ONE, 2014) are binding values, retold here.

Chains of the proteins cited; added tags and fusions are not shown. Residues count along the entry.
UniProt P07288, residues 25-261: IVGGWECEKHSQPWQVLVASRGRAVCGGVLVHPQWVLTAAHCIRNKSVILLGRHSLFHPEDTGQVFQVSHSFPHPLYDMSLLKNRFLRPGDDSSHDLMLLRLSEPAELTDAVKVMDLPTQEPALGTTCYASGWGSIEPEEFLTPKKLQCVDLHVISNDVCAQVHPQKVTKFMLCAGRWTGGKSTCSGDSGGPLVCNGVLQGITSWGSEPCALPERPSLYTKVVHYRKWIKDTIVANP

This experiment has as its target Prostate-specific antigen (PSA or kallikrein-related peptidase-3, KLK3), major form of active PSA (isoform PSA-B) (human) (UniProt P07288). Description: SPR; Biacore T100; PSA amine-coupled to a CM5 chip (2000-3900 RU); alpha-chymotrypsin surface as reference, subtracted; peptides 1.2-600 uM flowed in PBS pH 7.4 (6.7 mM PO4, 0.15 M NaCl), 40 ul/min, 25 C, contact 60 s, dissociation 180 s; Steady State Affinity model; both purified. A general note: Surface plasmon resonance follows binding to a sensor surface in real time, without labels.

These are yes or no findings as the source states them, for the method shown.

For CVFAHNADALVC (disulfide bridge between cysteines 1-12) [inactive derivative of peptide B2-NH2 (B2-NH2-control)], the binding entry is on record as “no binding (tested: 1.2–600 µM)”.
